Data as given in PubChem BioAssay AID1671195 (Yale University, 2021).

- Test: 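Regulators of LDL receptor activity judged by labelled LDL uptake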 (primary screen)
- Cell system: human Huh7 hepatoma cells
- Reagents: siRNA pool against human genes, 18 nM
- Time to read-out: about 2 to 2.5 days of knockdown, then 8 h LDL uptake
- Conditions: DiI-labelled LDL at 30 µg/ml for 8 h, in lipoprotein-deficient serum medium
- Measurement: 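Fluorescent LDL signal imaged in cells, scaled to the plate median, robust z-score for each replicate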
- Direction: robust z-score: higher = more LDL uptake after knockdown
- Hit rule: 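a gene counts as active if at least two replicate z-scores exceed ±2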
Shown is an unselected part of about 22,000 deposited reagents. About 1,510 of all reagents (6.9%) were called active. 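Active includes knockdowns raising or lowering LDL uptake; positive z-scores mean more uptake, negative mean less.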

gene	robust z-score, replicate 1	robust z-score, replicate 2	robust z-score, replicate 3	activity call
BAP1 (BRCA1 associated deubiquitinase 1)	-1.19	-0.698	-0.811	inactive
CDHR3 (cadherin related family member 3)	0.204	0.136	-0.184	inactive
USH1C (USH1 protein network component harmonin)	3.48	1.81	3.08	active
KCNAB3	0.968	0.855	0.713	inactive
SLC25A5	-0.153	-0.246	-0.269	inactive
KDM5C (lysine demethylase 5C)	-1.15	-0.903	-1	inactive
DTX2 (deltex E3 ubiquitin ligase 2)	-0.705	-0.401	-0.0325	inactive
TNFRSF17 (TNF receptor superfamily member 17)	-1.11	-0.804	-1.5	inactive
NECAP2 (NECAP endocytosis associated 2)	-0.0909	0.87	-0.0893	inactive
LOC442132 (golgin A6 family-like 1 pseudogene)	-1.59	-1.66	-1.79	inactive
LOC399917 (retired record)	0.0462	0.0351	-0.43	inactive
GSG1 (germ cell associated 1)	-0.888	-1.38	-1.1	inactive
CXCL2 (C-X-C motif chemokine ligand 2)	0.0992	0.18	0.263	inactive
LOC285307 (retired record)	-0.892	-0.876	-0.563	inactive
WASH3P (WASP family homolog 3, pseudogene)	2.66	3	2.68	active
ADGRF1 (adhesion G protein-coupled receptor F1)	-0.226	1.33	0.974	inactive
TNF (tumor necrosis factor)	0.193	-0.311	-0.0355	inactive
HERC2P3 (HERC2 pseudogene 3)	-0.0613	-0.23	-0.255	inactive
ZBTB33 (zinc finger and BTB domain containing 33)	-0.179	-0.196	0.188	inactive
IL7 (interleukin 7)	-1.22	-1.24	-0.941	inactive
FAM114A1 (family with sequence similarity 114 member A1)	0.337	-0.227	-0.436	inactive
NPIPA1 (nuclear pore complex interacting protein family member A1)	-1.2	-1.2	-1.36	inactive
CES1P1 (carboxylesterase 1 pseudogene 1)	0.482	2.27	1.49	inactive
MTMR2 (myotubularin related protein 2)	-1.12	-0.811	-1.21	inactive

Entries listed so far called active, once more:
gene	robust z-score, replicate 1	robust z-score, replicate 2	robust z-score, replicate 3	activity call
USH1C (USH1 protein network component harmonin)	3.48	1.81	3.08	active
WASH3P (WASP family homolog 3, pseudogene)	2.66	3	2.68	active

The listing continues.
gene	robust z-score, replicate 1	robust z-score, replicate 2	robust z-score, replicate 3	activity call
KIN (Kin17 DNA and RNA binding protein)	-0.089	2.06	0.00213	inactive
NPFF (neuropeptide FF-amide peptide precursor)	0.266	2.86	1.04	inactive
HCRTR2 (hypocretin receptor 2)	0.429	-0.592	0.162	inactive
CYP2W1 (cytochrome P450 family 2 subfamily W member 1)	-1.94	-1.88	-1.82	inactive
H2AC7 (H2A clustered histone 7)	0.337	-0.033	0.28	inactive
ARID3C (AT-rich interaction domain 3C)	0.517	-0.646	-0.624	inactive
SLC12A2	2.51	4.13	4.41	active
TSPAN14 (tetraspanin 14)	-1.35	-0.574	-1.03	inactive
CD27 (CD27 molecule)	0.528	0.374	0.556	inactive
CAPS2 (calcyphosine 2)	-1.06	-1.5	-0.795	inactive
SLC6A6	-0.556	-0.954	-0.561	inactive
VIPR2 (vasoactive intestinal peptide receptor 2)	-0.437	-1.31	-0.774	inactive
TH (tyrosine hydroxylase)	-0.315	-0.718	-0.678	inactive
ADAMTSL4 (ADAMTS like 4)	-1.35	0.0411	0.457	inactive
LOC388420 (retired record)	-0.438	-0.469	-0.227	inactive
TAGLN3 (transgelin 3)	-2.56	-1.07	-1.81	inactive
HIC2 (HIC ZBTB transcriptional repressor 2)	-1.8	-2.29	-2.53	active
FANCG (FA complementation group G)	-1.14	0.287	-0.531	inactive
TBXA2R (thromboxane A2 receptor)	-0.0306	-0.508	-0.241	inactive
LOC440127 (retired record)	-0.321	-0.458	-0.481	inactive
MUL1 (mitochondrial E3 ubiquitin protein ligase 1)	0.214	1.75	1.91	inactive
THBS2 (thrombospondin 2)	-0.664	-0.731	0.108	inactive
